# The list does not hold the whole screen: it is rich in T/C values a quarter to a half above the control, in often repeated tests (any T/C) and in doses without a T/C. Other doses and runs of a compound stand elsewhere. T/C is the treated group as % of the vehicle group. Some entries give survivors of the animals treated and no T/C: the source files T/C as zero there, which appears to mark a toxic dose or a test without result, not a measured value. Some doses without a T/C left all or most animals alive at the check, yet need not have been tolerated: survival well below the control is almost never listed, so the zero probably covers shortened survival too. Survivors were counted at the toxicity check, usually on the fifth day, unless a day is given; later deaths do not show. Schedules are NCI's codes, taken here to give the interval after Q, in days (D) or hours (H), and the number of doses after X. Some structures stand for samples that the source files as different forms (salt, stereo form or complex); doses refer to the form tested. For survival time, this PubChem deposit counts one and a half times the control or more as active, and values a quarter to a half above the control carry no call in these data; other NCI protocols may use other cut-offs. Some doses were run more than once; the values are given in rising order. Some T/C values are followed by the survivors on the day toxicity was checked, most often the fifth; where none is given, no animal had died by that day.
# Test system: CD2F1 mice, L1210 leukemia ip, survival T/C
# Experiment: NCI In Vivo Anticancer Drug Screen. Data for tumor model L1210 Leukemia (intraperitoneal) in CD2F1 (CDF1) mice
# Conditions: higher T/C = longer survival
# In short: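 Vehicle-treated tumor-bearing mice served as controls (C) for compound-treated mice (T). Reported figure is T divided by C.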
# [1] = T/C endpoint: mean survival time, dose: 200.0 mg/kg/injection, schedule: Q04DX002 (ip), vehicle: saline with Tween-80
# [2] = T/C endpoint: mean survival time, dose: 400.0 mg/kg/injection, schedule: Q04DX002 (ip), vehicle: saline with Tween-80
smiles,measurement,setting,value
CC(C)(C)OC(=O)NC(CSC(c1ccccc1)(c1ccccc1)c1ccccc1)C(=O)O (configuration not stated),survivor count,"T/C endpoint: mean survival time, dose: 150.0 mg/kg/injection, schedule: Q01DX001 (ip), vehicle: saline",0 of 6
same,survivor count,"T/C endpoint: mean survival time, dose: 300.0 mg/kg/injection, schedule: Q01DX001 (ip), vehicle: saline",0 of 6
COC(=O)c1ccc(SCC2=Nc3c(nc(N)[nH]c3=O)NCC2)cc1,survivor count,"T/C endpoint: mean survival time, dose: 24.0 mg/kg/injection, schedule: Q01DX009 (ip), vehicle: distilled water + Tween-80",6 of 6
CC1CC[N-]CC1.CC1CC[N-]CC1.CS(C)=O.[Cl][Rh]([Cl])[Cl],survivor count,"T/C endpoint: mean survival time, dose: 25.0 mg/kg/injection, schedule: Q01DX009 (ip), vehicle: saline with Tween-80",4 of 6
same,survivor count,"T/C endpoint: mean survival time, dose: 50.0 mg/kg/injection, schedule: Q01DX009 (ip), vehicle: saline with Tween-80",0 of 6
same,survivor count,"T/C endpoint: mean survival time, dose: 100.0 mg/kg/injection, schedule: Q01DX009 (ip), vehicle: saline with Tween-80",0 of 6
same,survivor count,"T/C endpoint: mean survival time, dose: 200.0 mg/kg/injection, schedule: Q04DX003 (ip), vehicle: saline with Tween-80",0 of 6
same,survivor count,"T/C endpoint: mean survival time, dose: 400.0 mg/kg/injection, schedule: Q04DX003 (ip), vehicle: saline with Tween-80",0 of 6
CCCCOC(=O)C1C2CCC(O2)C1C(N)=O (configuration not stated),survivor count,"T/C endpoint: mean survival time, dose: 100.0 mg/kg/injection, schedule: Q04DX002 (ip), vehicle: saline with Tween-80",0 of 3
same,survivor count,[1],0 of 3
same,survivor count,[2],0 of 3
CC(=O)OCC1(C)NC(=O)c2ccccc2O1 (configuration not stated),survivor count,"T/C endpoint: mean survival time, dose: 400.0 mg/kg/injection, schedule: Q01DX009 (ip), vehicle: saline with Tween-80",5 of 6
O[C@H](CN1CC1)[C@@H](O)CN1CC1,T/C,"T/C endpoint: mean survival time, dose: 0.13 mg/kg/injection, schedule: Q01DX009 (ip), vehicle: saline",147 and 148 % of control
same,T/C,"T/C endpoint: mean survival time, dose: 0.25 mg/kg/injection, schedule: Q03DX003 (ip), vehicle: saline",149 % of control
same,T/C,"T/C endpoint: mean survival time, dose: 0.25 mg/kg/injection, schedule: Q04DX003 (ip), vehicle: saline",143 % of control
same,T/C,"T/C endpoint: mean survival time, dose: 1.0 mg/kg/injection, schedule: Q01DX009 (ip), vehicle: saline",130 % of control
O=C(C[n+]1ccccc1)c1ccccc1,survivor count,"T/C endpoint: mean survival time, dose: 200.0 mg/kg/injection, schedule: Q01DX001 (ip), vehicle: saline",1 of 6
same,survivor count,[1],0 of 3
same,survivor count,"T/C endpoint: mean survival time, dose: 400.0 mg/kg/injection, schedule: Q01DX001 (ip), vehicle: saline",0 of 6
same,survivor count,[2],0 of 3
Nc1cc(Cl)c(O)c(Cl)c1,survivor count,"T/C endpoint: mean survival time, dose: 200.0 mg/kg/injection, schedule: Q01DX001 (ip), vehicle: saline with Tween-80",1 of 6
same,survivor count,"T/C endpoint: mean survival time, dose: 400.0 mg/kg/injection, schedule: Q01DX001 (ip), vehicle: saline with Tween-80",0 of 6
CCOC(=O)C1CN(Cc2ccccc2)CCC1=O (configuration not stated),survivor count,"T/C endpoint: mean survival time, dose: 400.0 mg/kg/injection, schedule: Q01DX009 (ip), vehicle: saline",2 of 6
Nc1c(/C=C/c2cc3cc(C4=NCCN4)ccc3o2)[nH]c2cc(C3=NCCN3)ccc12,T/C,"T/C endpoint: median survival time, dose: 6.25 mg/kg/injection, schedule: Q01DX009 (ip), vehicle: Klucel (hydroxypropylcellulose) (HPC)",130 % of control
same,T/C,"T/C endpoint: median survival time, dose: 12.5 mg/kg/injection, schedule: Q01DX005 (ip), vehicle: Klucel (hydroxypropylcellulose) (HPC)",137 % of control
same,T/C,"T/C endpoint: median survival time, dose: 12.5 mg/kg/injection, schedule: Q01DX009 (ip), vehicle: Klucel (hydroxypropylcellulose) (HPC)",139 % of control
same,T/C,"T/C endpoint: median survival time, dose: 25.0 mg/kg/injection, schedule: Q01DX009 (ip), vehicle: Klucel (hydroxypropylcellulose) (HPC)",132 % of control [9 of 10 alive]
same,survivor count,"T/C endpoint: median survival time, dose: 50.0 mg/kg/injection, schedule: Q01DX009 (ip), vehicle: Klucel (hydroxypropylcellulose) (HPC)",7 of 10
same,survivor count,"T/C endpoint: median survival time, dose: 83.33 mg/kg/injection, schedule: Q01DX005 (ip), vehicle: Klucel (hydroxypropylcellulose) (HPC)",4 of 6
same,survivor count,"T/C endpoint: median survival time, dose: 100.0 mg/kg/injection, schedule: Q01DX005 (ip), vehicle: Klucel (hydroxypropylcellulose) (HPC)",1 of 6
same,survivor count,"T/C endpoint: median survival time, dose: 138.88 mg/kg/injection, schedule: Q01DX005 (ip), vehicle: Klucel (hydroxypropylcellulose) (HPC)",0 of 6
same,survivor count,"T/C endpoint: median survival time, dose: 200.0 mg/kg/injection, schedule: Q01DX005 (ip), vehicle: Klucel (hydroxypropylcellulose) (HPC)",0 of 6

# Source: PubChem BioAssay AID256 (DTP/NCI, 2004)
